PubChem BioAssay AID1671190 (National Center for Advancing Translational Sciences (NCATS), 2021)
Among all 580,000 compounds or so, about 6,100 (1.1%) were called active. Inconclusive results, whose numbers are uncertain, are shown with a selection of clear calls. The call rests on the fitted dose curve; in most records, active means well fitted inhibition curve with a large enough effect; inconclusive means small, poorly fitted or top-dose-only effect, or another doubt; inactive means no such curve, though single readings can be large or run the other way. Where the call is inconclusive, the potency comes from a doubtful curve fit.

The chains behind the UniProt entries cited, without tags or fusion partners.
UniProt P18054, whole entry, looked up: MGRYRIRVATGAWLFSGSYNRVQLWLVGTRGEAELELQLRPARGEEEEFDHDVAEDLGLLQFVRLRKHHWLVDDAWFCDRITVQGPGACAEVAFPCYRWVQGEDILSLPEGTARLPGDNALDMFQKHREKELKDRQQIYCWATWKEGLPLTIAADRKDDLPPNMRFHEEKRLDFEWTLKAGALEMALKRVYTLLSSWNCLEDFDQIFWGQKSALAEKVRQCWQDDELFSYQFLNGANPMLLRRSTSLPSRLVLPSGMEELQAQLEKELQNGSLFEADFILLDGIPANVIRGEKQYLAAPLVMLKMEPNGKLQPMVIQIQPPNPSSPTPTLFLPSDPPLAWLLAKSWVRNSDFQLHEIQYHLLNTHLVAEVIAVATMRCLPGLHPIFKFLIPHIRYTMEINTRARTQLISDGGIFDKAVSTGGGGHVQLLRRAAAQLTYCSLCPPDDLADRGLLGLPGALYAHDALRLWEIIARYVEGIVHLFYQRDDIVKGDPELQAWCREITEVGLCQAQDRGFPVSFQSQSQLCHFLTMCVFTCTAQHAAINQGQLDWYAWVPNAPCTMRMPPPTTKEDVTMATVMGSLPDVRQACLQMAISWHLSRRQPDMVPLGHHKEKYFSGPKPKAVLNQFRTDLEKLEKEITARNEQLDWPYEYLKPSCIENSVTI

molecular target: Polyunsaturated fatty acid lipoxygenase ALOX12 (Homo sapiens) (UniProt P18054); assay: Primary qHTS assay for inhibitors of human arachidonate 12S-lipoxygenase (ALOX12): Round 2; conditions: purified 12hLO, xylenol orange hydroperoxide absorbance; series mostly up to 108 µM
In short: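 Purified human 12hLO (150 nM final) in 25 mM Hepes, 0.01% Triton X-100, pH 7.0 was preincubated 15 min at room temperature with compound. Then 40 uM arachidonic acid was added, 30 min. Hydroperoxide was read by Fe-XO absorbance ratio 573/405 nm.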
Potency means the concentration at half of the fitted maximal effect.

| Structure (SMILES) | Potency |
| --- | --- |
| COc1ccc2c(C)c(CCC(=O)N3CCN(C(C)=O)CC3)c(=O)oc2c1 | inconclusive: 50.1 µM [inhibitor, partial curve, poor fit] |
| COc1ccc(C(=O)N2CCC3(CC2)NC(=O)N(c2cccc(F)c2)N3)cc1 | inconclusive: 3.55 µM [inhibitor, full curve, poor fit] |
| COc1cc2c(cc1OC)CN(Cc1cc(=O)c(OCc3ccc(Cl)cc3Cl)co1)CC2 | inconclusive: 31.6 µM [inhibitor, partial curve, poor fit] |
| O=C(NNC(=S)Nc1ccc(Cl)c(Cl)c1)c1ccccn1 | inconclusive: 20 µM [inhibitor, full curve, poor fit] |
| Cc1ccc(NC(=O)C2CCN(C(=O)c3ccc(Cl)cc3)CC2)nc1 | inconclusive: 25.1 µM [inhibitor, partial curve, poor fit] |
| CSc1ccccc1C(=O)OCC(=O)Nc1c(C)n(C)n(-c2ccccc2)c1=O | inactive |
| O=C(O)c1ccc(-c2ccc(/C=c3/sc4nc5ccccc5n4c3=O)o2)cc1Cl | inactive |
| O=C1Nc2ccc(F)cc2C12Nc1ccccc1-c1nnc(SCc3ccccc3)nc1O2 (stereo not drawn) | inconclusive: 100 µM [inhibitor, partial curve, poor fit] |
| CCOc1ccc(OCCOCCN2CCCC2)cc1 | inconclusive: 0.316 µM [inhibitor, full curve, poor fit] |
| Cc1ccc(-c2csc(=Nc3ccccc3)n2Cc2ccc3c(c2)OCO3)cc1 | inconclusive: 35.5 µM [inhibitor, full curve, poor fit] |
| CC(Oc1ccccc1F)C(=O)Nc1ccc(-c2nc3ccccc3o2)cc1 (stereo not drawn) | inactive |
| COCCn1nnnc1C(c1ccccc1OC)N1CCN(C(=O)c2ccco2)CC1 (stereo not drawn) | inconclusive: 39.8 µM [inhibitor, partial curve, poor fit] |
| Cn1c(=O)c2c(-c3ccccc3)n3c(c2n(C)c1=O)C(c1coc2ccccc2c1=O)OCC3 (stereo not drawn) | inconclusive: 4.47 µM [inhibitor, full curve, poor fit] |
| COC(=O)[C@@H]1Cc2c([nH]c3ccccc23)[C@@H]2C[C@@H](NCCNC(C)=O)C[C@@H](c3ccc(F)c(F)c3)N12 | inconclusive: 56.2 µM [inhibitor, partial curve, poor fit] |
| O=C(C1=C(O)C(=O)N(Cc2ccco2)C1c1ccccc1F)c1cccs1 (stereo not drawn) | inconclusive: 44.7 µM [inhibitor, partial curve] |
| Clc1ccccc1-c1nc(N2CCNCC2)c2ccccc2n1 | inconclusive: 5.62 µM [inhibitor, full curve, poor fit] |
| O=C(NCC1(N2CCCCC2)CCCCC1)c1ccc(NC(=O)c2cccs2)cc1 | inconclusive: 50.1 µM [inhibitor, single point] |
| Cc1ccc(C)c(N2CCN(S(=O)(=O)c3c(C)[nH]c(C)c3C(=O)N3CCCCC3)CC2)c1 | inactive |
| CCOC(=O)N1CCN(CC(=O)N2c3ccccc3CC2C)CC1 (stereo not drawn) | inconclusive: 0.562 µM [inhibitor, full curve, poor fit] |
| CC(=O)c1c(C)[nH]c(-c2csc(CC(=O)Nc3ccc(C)cc3C)n2)c1C | inconclusive: 2 µM [inhibitor, full curve, poor fit] |
| CC(=O)Nc1nc2n(n1)C(c1ccc(Cl)cc1)C=C(c1ccc(Cl)cc1)N2 (stereo not drawn) | inconclusive: 28.2 µM [inhibitor, single point] |
| CC(=O)NC(C)C(=O)OCC(=O)c1ccc(Cl)s1 (stereo not drawn) | inconclusive: 39.8 µM [inhibitor, partial curve, poor fit] |
| O=C1C(Cl)=C(NCC2CCCO2)C(=O)N1C1CCCCC1 (stereo not drawn) | inconclusive: 44.7 µM [inhibitor, partial curve, poor fit] |

Already shown: an excerpt of the list.

| Structure (SMILES) | Potency |
| --- | --- |
| Cc1ccc(NC(=O)C2CCN(C(=O)c3ccc(Cl)cc3)CC2)nc1 | inconclusive: 25.1 µM [inhibitor, partial curve, poor fit] |
| CSc1ccccc1C(=O)OCC(=O)Nc1c(C)n(C)n(-c2ccccc2)c1=O | inactive |
| O=C(O)c1ccc(-c2ccc(/C=c3/sc4nc5ccccc5n4c3=O)o2)cc1Cl | inactive |
| O=C1Nc2ccc(F)cc2C12Nc1ccccc1-c1nnc(SCc3ccccc3)nc1O2 (stereo not drawn) | inconclusive: 100 µM [inhibitor, partial curve, poor fit] |

Further entries follow.

| Structure (SMILES) | Potency |
| --- | --- |
| COc1ccc(CC(=O)Nc2ccc([C@@H](O)[C@H]3COCC(=O)N3CC3CCCCC3)cc2)cc1 | inactive |
| COc1ccc(C(=O)COC(=O)/C=C/c2c(Cl)nc3sccn23)cc1Br | inactive |
| Cc1ccc(NC(=S)NNC(=O)c2ccco2)cc1 | inactive |
| Cc1[nH]c2ccc(C(=O)N(C)CCOc3ccccc3)cc2c1C | inconclusive: 79.4 µM [inhibitor, single point] |
| O=C1CCc2cc(S(=O)(=O)NCc3ccccc3Cl)cc3c2N1CCC3 | inactive |
| CCOC(=O)C1CCCN(C(=O)Cn2ncc3c4ccccc4n(Cc4ccccc4)c3c2=O)C1 (stereo not drawn) | inactive |
| CCN1c2cc(C(=O)NCc3cccc(F)c3)ccc2C(=O)N2CCCCCC21 (stereo not drawn) | inconclusive: 44.7 µM [inhibitor, partial curve, poor fit] |
| COc1ccc(C(CNC(=O)CN2CCNC(=O)C2)c2c[nH]c3ccccc23)cc1 (stereo not drawn) | inconclusive: 63.1 µM [inhibitor, single point] |
| CCc1ccccc1NC(=O)C(C)n1c(=O)cc(C)c2c(C)nn(-c3ccccc3)c21 (stereo not drawn) | inconclusive: 126 µM [inhibitor, single point] |
| COC(=O)c1ccc(CSc2nc3c([nH]c4ccccc43)c(=O)n2-c2cccc(Cl)c2)o1 | inconclusive: 112 µM [inhibitor, partial curve, poor fit] |
| CC/C(=N/NC(=O)c1ccccc1O)c1c(C)[nH]n(-c2ccccc2)c1=O | inconclusive: 25.1 µM [inhibitor, single point] |
| COc1ccc(CNC(=O)Nc2ccc(C)cc2C)cc1 | inactive |
| Cc1c(C)n(CC(O)CNc2ccccc2)c2ccccc12 (stereo not drawn) | inconclusive: 0.631 µM [inhibitor, full curve] |
| CCCCCCC1COC(c2ccc(Br)cc2)OC1 (stereo not drawn) | inconclusive: 0.112 µM [inhibitor, full curve, poor fit] |
| Cc1cccc(C(=O)N2CCC(=O)N([C@H](COCc3cccc(Cl)c3)Cc3ccccc3)CC2)c1 | inconclusive: 44.7 µM [inhibitor, partial curve, poor fit] |
| O=C(C1=C(O)C(=O)N(CCN2CCOCC2)C1c1ccc(F)cc1)c1cc2ccccc2o1 (stereo not drawn) | inconclusive: 39.8 µM [inhibitor, partial curve] |
| O=C(NCCC1=CCCCC1)c1ccc(-n2cncn2)cc1 | inconclusive: 79.4 µM [inhibitor, single point] |
| COc1cc(-c2noc(-c3ccc(S(=O)(=O)N4CCOCC4)o3)n2)ccc1OC(C)C | inactive |
| COc1ccccc1CNC(=O)N(C)CCOc1ccccc1C | inactive |
| O=[N+]([O-])c1ccc(NN=Cc2cccc3ccccc23)nc1 | inconclusive: 70.8 µM [inhibitor, partial curve, poor fit] |
| CCCn1c(NC(=O)c2ccco2)nc2ccccc21 | inactive |
| CC(C)(C)NC(=O)NC(=O)CSc1nnc(COc2ccccc2Cl)o1 | inactive |
| CCOC(=O)c1c(C)[nH]c(N=Nc2ccc(C)cc2)c1C | inactive |

| Structure (SMILES) | Potency |
| --- | --- |
| COC(=O)C1=C(C)N(Cc2ccc(Br)cc2)C(=S)NC1c1cccc(F)c1 (stereo not drawn) | active: 35.5 µM |
| COc1cc(C(=O)N(Cc2nc3nc(C)cc(=O)n3[nH]2)c2ccc(F)cc2)cc(OC)c1OC | inconclusive: 2.51 µM [inhibitor, full curve, poor fit] |
| COc1ccc(OC)c(N=C2C(=O)Nc3ccccc32)c1 | inactive |
| Cc1ccc(CN2CC[C@@H]3[C@H]2C(=O)NC[C@H](CCC(=O)N2CCN(C)CC2)N3C)cc1 | inactive |
| CCN1/C(=C2/SC(=S)NC2=O)Sc2ccccc21 | inconclusive: 44.7 µM [inhibitor, partial curve, poor fit] |
| Cc1ccc(Nc2nc(-c3ccc(C)cc3)c(C)s2)cc1 | inconclusive: 39.8 µM [inhibitor, partial curve, poor fit] |
| Cc1cnc(CN2CC3(CCCN(c4ccc(C#N)cn4)C3)CCC2=O)cn1 (stereo not drawn) | inactive |
| CSc1ccccc1NC(=O)c1cc(-c2ccco2)on1 | inconclusive: 79.4 µM [inhibitor, partial curve, poor fit] |
| Cc1cc(NC(=O)CCCC(=O)NCc2ccccc2)no1 | inactive |
| COc1ccc2c(c1)c(/C=N/Nc1nc3ccccc3[nH]1)c(C)n2C | inactive |
| O=C(NCCC1CCN(C(=O)Nc2cc(F)cc(F)c2)CC1)c1ccc(F)cc1 | inconclusive: 35.5 µM [inhibitor, full curve, poor fit] |
| O=C(Nc1ccccc1)c1cnc2n1CCN(Cc1ccc3c(c1)CCO3)CC2 | inactive |
| CCOc1cc(/C=C2\SC(=S)N(NS(=O)(=O)c3ccccc3)C2=O)ccc1O | inconclusive: 158 µM [inhibitor, single point] |
| COC(=O)c1cc(-c2ccc(OC)c(OC)c2)nc2ccccc12 | inconclusive: 50.1 µM [inhibitor, partial curve, poor fit] |
| CC(=O)/C=C/c1ccc2ccccc2n1 | inconclusive: 3.55 µM [inhibitor, full curve] |
| O=C(CSc1ccc(Cl)cc1)Nc1ccc2c(c1)OCCCO2 | inconclusive: 39.8 µM [inhibitor, partial curve] |
| Nc1ccc(O)c([N+](=O)[O-])c1 | inconclusive: 14.7 µM [inhibitor, partial curve] |
| CC(=O)N/C(=C/c1cccnc1)C(=O)O | inactive |
| COC(=O)c1c(C)oc2ccc(N(C(=O)c3ccncc3)S(=O)(=O)c3cc(C)ccc3C)cc12 | inactive |
| CN1CCC(NCC2(COc3cccnc3)C[C@@H](O)[C@@H](O)C2)CC1 (stereo partly drawn) | inactive |
| O=C1CSc2ccc(S(=O)(=O)CCC(=O)N(CCc3ccccc3)Cc3ccccc3)cc2N1 | inactive |
| Cc1ccc(C)c(NC(=O)Cn2c(=O)n(-c3ccccc3)c(=O)c3c2cc(C)n3C)c1 | inactive |
